Data as given in PubChem BioAssay AID493246 (Drosophila RNAi Screening Center, 2011).

- Screen: 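Identify essential fly genes by loss of cell viability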 (primary screen)
- System: Drosophila Kc and S2R+ cells
- Reagents: long dsRNA against Drosophila genes
- Measured: 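Raw, unnormalised count of remaining cells in each well; per-plate z-scores of cell number underlie the calls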
- Scale: Kc cell number and S2R+ cell number: higher = more cells remaining
- Active means: 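Active when the per-plate z-score of cell number is 3 or more in the direction of fewer cells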
The deposit covers about 21,000 reagents; shown is an unselected part of those that have a named target and a result. Over the whole deposit, 429 (2%) got an active call. 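Values are raw and not normalised between plates; calls rest on per-plate z-scores that were not deposited.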 Entries without a mark were called inactive. A plus sign joins genes that one reagent is predicted to hit. No sequences are given here. Not given: the amount of reagent, the time to read-out.

target | DRSC id | Kc cell number, rep 1 | Kc cell number, rep 2 | S2R+ cell number, rep 1 | S2R+ cell number, rep 2
bun | DRSC01253 | 1.59e6 | 1.67e6 | 1.12e6 | 1.26e6
bun | DRSC01255 | 1.58e6 | 1.74e6 | 1.13e6 | 1.26e6
bun | DRSC03500 | 1.18e6 | 1.30e6 | 6.54e5 | 7.71e5
Cul3 | DRSC03537 | 1.39e6 | 1.41e6 | 1.21e6 | 1.18e6
Arpc5 | DRSC00730 | 1.41e6 | 1.42e6 | 1.00e6 | 1.21e6
CG33992 (retired record) + CG43755 | DRSC00012 | 1.56e6 | 1.57e6 | 1.04e6 | 1.17e6
CG8004 | DRSC10947 | 1.50e6 | 1.58e6 | 1.21e6 | 1.26e6
Tango14 | DRSC00667 | 1.71e6 | 1.71e6 | 1.11e6 | 1.29e6
ncm | DRSC02179 | 1.15e6 | 1.23e6 | 1.02e6 | 1.02e6
Ski6 | DRSC02491 | 1.64e6 | 1.64e6 | 1.26e6 | 1.42e6
mid | DRSC02977 | 1.56e6 | 1.66e6 | 1.07e6 | 1.18e6
CG12241 | DRSC14481 | 1.45e6 | 1.49e6 | 1.27e6 | 1.29e6
CG6059 | DRSC15958 | 5.02e5 | – | 7.55e5 | –
CG12641 (retired record) | DRSC17848 | 1.58e6 | 1.56e6 | 7.78e5 | 8.70e5
tgo | DRSC17077 | 1.40e6 | 1.50e6 | 1.21e6 | 1.29e6
CG12194 | DRSC00345 | 1.56e6 | 1.63e6 | 1.26e6 | 1.34e6
salm | DRSC03606 | 1.80e6 | 1.75e6 | 1.22e6 | 1.38e6
Chi | DRSC04602 | 1.31e6 | 1.42e6 | 1.08e6 | 1.11e6
Slc45-1 | DRSC10427 | 1.61e6 | 1.56e6 | 1.17e6 | 1.12e6
CG13737 | DRSC10064 | 1.79e6 | 1.77e6 | 1.29e6 | 1.34e6
l(3)73Ah | DRSC11359 | 1.35e6 | 1.37e6 | 1.23e6 | 1.26e6

In a second layout: 6 of the entries above.
bun [DRSC01253] | Kc cell number, rep 1 = 1.59e6; Kc cell number, rep 2 = 1.67e6; S2R+ cell number, rep 1 = 1.12e6; S2R+ cell number, rep 2 = 1.26e6
bun [DRSC01255] | Kc cell number, rep 1 = 1.58e6; Kc cell number, rep 2 = 1.74e6; S2R+ cell number, rep 1 = 1.13e6; S2R+ cell number, rep 2 = 1.26e6
bun [DRSC03500] | Kc cell number, rep 1 = 1.18e6; Kc cell number, rep 2 = 1.30e6; S2R+ cell number, rep 1 = 6.54e5; S2R+ cell number, rep 2 = 7.71e5
Cul3 [DRSC03537] | Kc cell number, rep 1 = 1.39e6; Kc cell number, rep 2 = 1.41e6; S2R+ cell number, rep 1 = 1.21e6; S2R+ cell number, rep 2 = 1.18e6
Arpc5 [DRSC00730] | Kc cell number, rep 1 = 1.41e6; Kc cell number, rep 2 = 1.42e6; S2R+ cell number, rep 1 = 1.00e6; S2R+ cell number, rep 2 = 1.21e6
CG33992 (retired record) + CG43755 [DRSC00012] | Kc cell number, rep 1 = 1.56e6; Kc cell number, rep 2 = 1.57e6; S2R+ cell number, rep 1 = 1.04e6; S2R+ cell number, rep 2 = 1.17e6

Further records:
target | DRSC id | Kc cell number, rep 1 | Kc cell number, rep 2 | S2R+ cell number, rep 1 | S2R+ cell number, rep 2
CG10562 | DRSC14257 | 5.33e5 | – | 8.01e5 | –
CG14855 | DRSC14979 | 1.28e6 | 1.27e6 | 1.05e6 | 1.19e6
Rgl | DRSC11267 | 1.76e6 | 1.79e6 | 1.39e6 | 1.41e6
MESK2 + CG10494 | DRSC04259 | 1.51e6 | 1.61e6 | 1.20e6 | 3.32e5
Obp8a | DRSC17868 | 1.54e6 | 1.54e6 | 9.88e5 | 1.13e6
CG14072 | DRSC02375 | 1.54e6 | 1.62e6 | 1.24e6 | 1.44e6
unpg | DRSC07713 | 1.48e6 | 1.52e6 | 1.24e6 | 1.32e6
Mcad | DRSC09871 | 1.38e6 | 1.53e6 | 1.27e6 | 1.11e6
Phs | DRSC10827 | 1.57e6 | 1.50e6 | 1.26e6 | 1.41e6
CG10584 | DRSC11624 | 1.36e6 | 1.33e6 | 1.36e6 | 1.47e6
Cyt-c-p | DRSC03310 | 1.38e6 | 1.47e6 | 1.15e6 | 1.30e6
CG14565 | DRSC11726 | 1.33e6 | 1.33e6 | 1.28e6 | 1.33e6
ninaB | DRSC16807 | 1.22e6 | 1.30e6 | 1.12e6 | 1.24e6
Doc3 | DRSC10480 | 1.36e6 | 1.32e6 | 1.24e6 | 1.30e6
CG3740 | DRSC18508 | 1.49e6 | 1.47e6 | 1.04e6 | 1.13e6
CG31454 | DRSC14365 | 1.43e6 | 1.65e6 | 1.26e6 | 1.30e6
BNIP3 | DRSC11761 | 1.40e6 | 1.41e6 | 1.31e6 | 1.36e6
CG33307 | DRSC01349 | 1.55e6 | 1.61e6 | 1.15e6 | 1.30e6
DCP2 | DRSC10597 | 1.26e6 | 1.32e6 | 9.14e5 | 1.00e6
